{"source": "patent USRE37950E1", "about": "“Biogradable in-situ forming implants and methods of producing the same” (priority 1990, dated 2002)", "test": "Release of tetracycline from DL-PLG/NMP formulation, procedure of Example 1 without acidifying the receiving fluid, UV absorption", "assay_type": "physicochemical", "conditions": "Example 8: 2.4% by weight TCB solution in 70% by weight 50:50 DL-PLG in NMP", "note": "For at least one compound, name, drawing or mass did not settle the structure.", "data": [{"smiles": "CN(C)[C@@H]1C(O)=C(C(N)=O)C(=O)[C@@]2(O)C(O)=C3C(=O)c4c(O)cccc4[C@@](C)(O)[C@H]3C[C@@H]12", "note": "[TCB, Tetracycline]", "values": [{"measurement": "drug released", "setting": "after 1 day", "result": "approximately 44%"}, {"measurement": "drug released", "setting": "after 2 days", "result": "~54", "unit": "%"}, {"measurement": "drug released", "setting": "after 5 days", "result": "~68", "unit": "%"}, {"measurement": "drug released", "setting": "after 6 days", "result": "~73", "unit": "%"}, {"measurement": "drug released", "setting": "after 7 days", "result": "~80", "unit": "%"}, {"measurement": "drug released", "setting": "after 9 days", "result": "~87", "unit": "%"}, {"measurement": "drug released", "setting": "after 12 days", "result": "~96", "unit": "%"}, {"measurement": "drug released", "setting": "after 14 days", "result": "~100", "unit": "%"}]}]}
